PubChem BioAssay AID652259 | Drosophila RNAi Screening Center, 2013
In all, the deposit lists about 22,000 reagents; shown is an unselected part of those that have a named target and a result. Over the whole deposit, 233 (1.1%) are marked active. 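Light values are raw, unnormalised plate reads; the ratio scores behind the reporter calls were not deposited.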 A plus sign joins genes that one reagent is predicted to hit. Not stated in the record: the amount of reagent, the time to read-out, the dose of the treatment.

- Test: 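Knock-downs that push a Wingless-driven reporter up or down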 (primary screen)
- Cell system: Drosophila clone 8 imaginal disc epithelial cells
- Reagents: long dsRNA against Drosophila genes
- Conditions: pathway stimulated by co-transfected Wingless expression plasmid
- Read-out: 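Dual luciferase reads per well after Wingless plasmid stimulation: reporter firefly light and Renilla control light; activity is firefly divided by Renilla, a ratio not deposited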
- Direction: firefly reporter light: higher = more Wg reporter light, before normalisation; Renilla control light: higher = more transfected or surviving cells
- Call rule: 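a knock-down is a candidate when at least two out of four statistical tests show it departing from its plate mean; one test alone signals a weak candidate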
- Calls: active = candidate regulator (raises or lowers reporter); inactive = not a candidate

gene knocked down,DRSC id,"firefly reporter light, replicate 1","firefly reporter light, replicate 2","Renilla control light, replicate 1","Renilla control light, replicate 2",call
CG42675,DRSC12157,6119,,2439,,inactive
CG42675,DRSC21868,6.65e5,6.58e5,2.63e5,2.82e5,inactive
CG31872,DRSC02568,2496,7170,976,2277,inactive
CG31872,DRSC02572,4976,9336,1527,3244,inactive
Fhos (Formin homology 2 domain containing),DRSC08943,2598,,1356,,inactive
Fhos (Formin homology 2 domain containing),DRSC10545,5938,,2745,,inactive
Fhos (Formin homology 2 domain containing),DRSC10546,5953,,2826,,inactive
Fhos (Formin homology 2 domain containing),DRSC10547,1986,10291,1360,4324,inactive
CG14851,DRSC14975,18678,,4701,,inactive
CG14851,DRSC21500,6.35e5,6.93e5,2.75e5,2.30e5,inactive
CG9372,DRSC11068,15840,,4857,,inactive
CG14853,DRSC14977,12759,,6224,,inactive
CG14853,DRSC21528,2.99e5,3.51e5,1.86e5,1.63e5,inactive
CR31822 (pseudo),DRSC01510,19768,,8541,,inactive
CG11180,DRSC06055,15286,,5917,,inactive
CG33914,DRSC05033,17693,,9159,,inactive
CG33914,DRSC05034,23192,,11515,,inactive
CG18585,DRSC02678,10496,,4469,,inactive
Sema5c (Semaphorin 5c),DRSC11279,5642,,2221,,inactive
CG17321,DRSC02598,2026,6458,491,3008,inactive
asRNA:CR43299 + CG8119,DRSC20083,16595,,8323,,inactive
CG42535,DRSC09041,1773,,850,,inactive
Setx (Senataxin),DRSC10859,2049,9703,1031,2721,inactive
CG4712,DRSC06882,8752,,3898,,inactive
Oseg6 (Outer segment 6),DRSC06066,5244,,1735,,inactive
CG5382,DRSC15786,2881,7912,1152,2283,inactive
Lar (Leukocyte-antigen-related-like),DRSC01707,15815,,10525,,inactive
Lar (Leukocyte-antigen-related-like),DRSC03361,8280,,2359,,inactive
l(3)72Dp (lethal (3) 72Dp),DRSC10477,5944,,2936,,inactive

Copied from the listing for reference:
gene knocked down,DRSC id,"firefly reporter light, replicate 1","firefly reporter light, replicate 2","Renilla control light, replicate 1","Renilla control light, replicate 2",call
CG14851,DRSC14975,18678,,4701,,inactive
CG14851,DRSC21500,6.35e5,6.93e5,2.75e5,2.30e5,inactive
CG9372,DRSC11068,15840,,4857,,inactive
CG14853,DRSC14977,12759,,6224,,inactive
CG14853,DRSC21528,2.99e5,3.51e5,1.86e5,1.63e5,inactive
